Assay results: patent publication US20210169959A1, “TERMINALIA FERDINANDIANA EXTRACT AND PRODUCTS CONTAINING EXTRACT OF TERMINALIA FERDINANDIANA FOR ANTIMICROBIAL OR ANTIBACTERIAL APPLICATIONS” (RISING PHOENIX INDUSTRIES PTY LTD, priority 2017, published 2021)
Some entries share one result that the patent states for a list of compounds.

Tests used:
human dermal fibroblast = conditions: compound alone; no LC50 reported
Artemia nauplii = conditions: compound alone; no LC50 reported

| Molecule | mortality for all concentrations tested (human dermal fibroblast) | mortality for all concentrations tested (Artemia nauplii) |
| --- | --- | --- |
| Cc1cc(OCCCC(C)(C)C(=O)O)c(C)cc1O [HMDP, 5-(4-hydroxy-2,5-dimethylphenoxy)-2,2-dimethyl-pentanoic acid] | less than 50% | less than 50% |
| eujavonic acid | less than 50% | less than 50% |
